Source: PubChem BioAssay AID1259254 (NCATS, 2017)

- Purpose: 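Genome-wide screen for genes that prevent DNA re-replication in cancer cells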 (primary screen)
- Cells: human HCT116 colorectal cancer cells
- Knock-down reagent: single siRNA against human genes
- Timing: 3 days
- Measured: 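Nuclei stained with Hoechst and imaged; cell-cycle phase assigned by DNA content; G2 share scaled per plate, non-targeting siRNA 0%, GMNN siRNA 100%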
- Scale: G2 robust z-score: higher = more G2 cells, more excess DNA replication
- Active means: 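Active siRNAs have a G2 robust z of 5 or more median absolute deviations over the median, which in these data means about 38% or higher of GMNN control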
Here is an unselected part of about 59,000 deposited reagents. In the full data, about 1,550 (2.6%) got an active call. 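G2 share is only a proxy for re-replication; each gene was hit by three separate siRNAs, and active genes were retested.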 Entries without a mark were called inactive. The numbers tell different reagents against one gene apart. Not all columns of the deposit are shown. Not given: the amount of reagent.

Silencing of C1QTNF12 #1 resulted in: G2 robust z-score 0.47.
Against C1QTNF12 #2, the entry reads G2 robust z-score 2.02.
With knock-down of C1QTNF12 #3, the record shows G2 robust z-score 1.5.
With knock-down of RAD9A #1, the screen gave G2 robust z-score 4.77.
Against RAD9A #2, the entry reads G2 robust z-score 1.52.
Knock-down of RAD9A #3 resulted in: G2 robust z-score -1.39.

2 successive entries from above, for reference:
C1QTNF12 #1 | G2 robust z-score: 0.47
C1QTNF12 #2 | G2 robust z-score: 2.02

Additional results:
After knock-down of BRI3 #1, the screen gave G2 robust z-score -0.793.
After knock-down of BRI3 #2 the results were G2 robust z-score -0.328.
Against BRI3 #3 the deposit lists G2 robust z-score 0.0856.
With knock-down of COQ4 #1, the record shows G2 robust z-score 2.66.
With knock-down of COQ4 #2, the screen gave G2 robust z-score -0.188.
Depletion of COQ4 #3 resulted in: G2 robust z-score -0.516.
